# Assay results as given in the supplement of paper PMC3334620.
# Over roughly 33,000 sequences, “E-score (-0.5 to 0.5)” has its median near -0.016; the highest 2% begin near 0.3. Some of the results follow.
# Molecular target: T1, Yer184c (UniProt P39961)
# T1 sequence: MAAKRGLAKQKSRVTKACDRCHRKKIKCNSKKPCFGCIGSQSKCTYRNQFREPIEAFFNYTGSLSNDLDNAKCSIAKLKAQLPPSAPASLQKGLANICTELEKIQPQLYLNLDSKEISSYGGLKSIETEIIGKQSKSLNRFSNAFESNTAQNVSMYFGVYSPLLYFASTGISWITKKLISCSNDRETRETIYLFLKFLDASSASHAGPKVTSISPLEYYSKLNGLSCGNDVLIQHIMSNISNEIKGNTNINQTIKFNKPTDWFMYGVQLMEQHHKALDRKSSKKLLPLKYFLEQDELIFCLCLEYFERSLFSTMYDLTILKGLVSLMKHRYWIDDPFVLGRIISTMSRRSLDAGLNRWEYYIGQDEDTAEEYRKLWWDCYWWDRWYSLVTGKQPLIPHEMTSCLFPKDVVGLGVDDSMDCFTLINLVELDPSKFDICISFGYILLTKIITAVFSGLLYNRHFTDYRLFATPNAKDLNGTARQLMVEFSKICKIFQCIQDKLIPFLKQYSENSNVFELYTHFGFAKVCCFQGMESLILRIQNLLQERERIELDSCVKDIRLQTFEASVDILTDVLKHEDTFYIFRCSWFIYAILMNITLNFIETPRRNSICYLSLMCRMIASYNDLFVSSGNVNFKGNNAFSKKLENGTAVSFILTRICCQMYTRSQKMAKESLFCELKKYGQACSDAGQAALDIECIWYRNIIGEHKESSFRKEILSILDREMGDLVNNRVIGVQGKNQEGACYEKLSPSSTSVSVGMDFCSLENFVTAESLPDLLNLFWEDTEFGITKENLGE
# Experiment: PBM E-score (8-mer binding enrichment) (E-score (-0.5 to 0.5)); higher = stronger / more preferred TF binding
# Details: protein concentration: 100 nM; construct: GST-full length
# Method in brief: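 Bound GST-tagged yeast transcription factors, applied at about 100-200 nM to double-stranded universal all-10-mer Agilent arrays, were detected with fluorescent anti-GST. Scans were normalised with masliner. A modified Wilcoxon-Mann-Whitney statistic, the E-score, was assigned to each ungapped eight-base word pooled with its reverse complement by the Universal PBM Analysis Suite.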
row,Sequence,PBM E-score
1,CGAGCTAG,0.113
2,ATGACAAA,0.0561
3,CCTGAGAG,-0.221
4,AAGCCACC,-0.342
5,ACCCGTTC,-0.0341
6,CCGAGCCC,0.116
7,CGCCGGTC,0.228
8,ATAGTTAA,-0.0448
9,GATTGTGA,0.144
10,GTTGAGCA,-0.116
11,GAAAGGAC,0.173
12,GACAGCTC,-0.206
13,TACTCTCA,-0.0149
14,CGAAGCGC,0.0913
15,GACAGGCC,-0.104
16,GCGGCAGA,0.0458
17,CGAAAGGC,0.0427
18,AGTTTGCC,0.0766
19,AAAATTGA,0.0736
20,CCCTACCA,-0.0555
21,CTACTGTA,-0.0357
22,TGGTCTAA,-0.11
23,GGGCTGGA,-0.0978
24,CGTTCAAG,0.111
25,ACAGTGGC,-0.16

row,Sequence,PBM E-score
1,GCAGAGGA,-0.0548
2,CAGTAACG,0.0386
3,TACCTCGA,0.0161
4,TCCCATAA,-0.0959
5,AACACAGT,-0.0644
6,CCACTTAA,0.0753
7,ATTTACCA,0.178
8,ACAGTTGC,-0.0277
9,CCGCTTCC,0.0709
10,AGGTGCTC,-0.384
11,AAGAGATC,-0.0883
12,CATCTACG,0.0913
13,AAACTCGC,0.0869
14,AGCCCCAC,-0.286
15,AGTGGAGC,-0.121
16,ATAAATCA,0.171
17,TATGCCAA,-0.139
18,CCGGTGAA,0.248
19,CGGAGCTA,0.0653
20,AGGTGGCA,-0.201
21,CTACGGAA,0.205
22,AACTTGAC,0.0553
23,CCCTGCAC,-0.199
24,GCATTAGA,0.0629
25,GCGCCGAC,0.206

row,Sequence,PBM E-score
1,GGATACCA,0.033
2,GATACCGA,0.0941
3,GAGAGTAC,-0.0468
4,AGGGAGTC,-0.235
5,AAGGTCGT,-0.306
6,AAAGCCTC,-0.139
7,CCATTGCA,-0.107
8,CCGTAGCC,-0.109
9,ACTTACTG,-0.0959
10,CAATTGAC,-0.0212
11,CTCGAACA,-0.00701
12,ACCGACCG,0.132
13,AGTTCTAC,-0.0807
14,CCACCGCC,-0.229
15,ATTTGGCA,0.0517
16,GAGACTCA,0.023
17,GCCTGTTA,-0.218
18,AGATGAAG,-0.19
19,GGCAACCA,0.087
20,ACTCATGG,-0.11
21,AGGGGCTG,-0.216
22,ATTTCTTC,0.315
23,CGGTAATC,0.108
24,CTATCCTA,-0.00403
25,ATGGTTAG,0.0958

# A section from further up, as a working copy:
row,Sequence,PBM E-score
3,TACCTCGA,0.0161
4,TCCCATAA,-0.0959
5,AACACAGT,-0.0644
6,CCACTTAA,0.0753
7,ATTTACCA,0.178
8,ACAGTTGC,-0.0277
9,CCGCTTCC,0.0709
10,AGGTGCTC,-0.384
11,AAGAGATC,-0.0883
12,CATCTACG,0.0913
13,AAACTCGC,0.0869
14,AGCCCCAC,-0.286
15,AGTGGAGC,-0.121
16,ATAAATCA,0.171
17,TATGCCAA,-0.139
18,CCGGTGAA,0.248
19,CGGAGCTA,0.0653
20,AGGTGGCA,-0.201
21,CTACGGAA,0.205
22,AACTTGAC,0.0553
23,CCCTGCAC,-0.199
24,GCATTAGA,0.0629
25,GCGCCGAC,0.206
1,GGATACCA,0.033
2,GATACCGA,0.0941
3,GAGAGTAC,-0.0468
4,AGGGAGTC,-0.235
5,AAGGTCGT,-0.306
6,AAAGCCTC,-0.139
7,CCATTGCA,-0.107
8,CCGTAGCC,-0.109
9,ACTTACTG,-0.0959
10,CAATTGAC,-0.0212
11,CTCGAACA,-0.00701
12,ACCGACCG,0.132
13,AGTTCTAC,-0.0807
14,CCACCGCC,-0.229
15,ATTTGGCA,0.0517
16,GAGACTCA,0.023
17,GCCTGTTA,-0.218
18,AGATGAAG,-0.19
19,GGCAACCA,0.087
20,ACTCATGG,-0.11
21,AGGGGCTG,-0.216
22,ATTTCTTC,0.315

# (list continues)

row,Sequence,PBM E-score
1,CTCCACAC,-0.126
2,AGCATCCA,-0.134
3,GCAAATCC,0.203
4,CTGCAAAG,-0.0274
5,GGGGAGCA,-0.332
6,AACCGGAG,0.358
7,GCCGCCAC,-0.273
8,CTGCTTAA,0.0504
9,CCAGTTAG,-0.245
10,CTGCCCAG,-0.0831
11,CAGCTAAG,-0.136
12,CTGAAGTA,0.0194
13,ACAACGTG,-0.174
14,GGCTAGAC,-0.126
15,CGGCAACG,0.247
16,AAGCTTGT,0.0388
17,GCCGTCAA,-0.0832
18,CCTGATCC,-0.105
19,CGAGCTTA,0.0634
20,AAGGTTTG,0.066
21,AGCGACAA,-0.146
22,CTTCTGCC,-0.0395
23,GTTTGGCA,0.0335
24,TATGGCAA,-0.0375
25,CTGGAGCA,-0.301

row,Sequence,PBM E-score
1,GACGGCTC,-0.119
2,CCTATCTC,-0.0616
3,AAATACCC,0.127
4,ATGCCTGC,-0.177
5,CTACGTAA,-0.0499
6,ATGGAGGC,-0.209
7,CATACAGA,0.108
8,AAGTTCGA,0.185
9,CTGTACGC,-0.0756
10,GCCGAAAA,0.439
11,AGTCAACT,-0.179
12,CTAGTGCA,0.0792
13,ACAAATTC,0.0749
14,CAATCGGC,0.217
15,CCAAGCTC,0.00361
16,CACAATAA,0.00019
17,CAGTATTC,0.13
18,GCCAAACA,-0.00926
19,TGTGCCAA,0.0933
20,CCTGACAG,-0.0423
21,GCCGCACC,0.0459
22,GCTCGGCC,0.207
23,GCAAAGCA,-0.0276
24,CTATCGAC,-0.269
25,ACAGTACT,-0.0797

row,Sequence,PBM E-score
1,CTCCCGTC,0.131
2,AGGGCTCA,-0.199
3,AATCGGGA,0.0709
4,CATTTTAG,0.239
5,CGCTCCAC,-0.101
6,ACAGCCTC,-0.212
7,TCTTTACA,0.122
8,TAGAGCAA,-0.18
9,ATTCGAAG,-0.0322
10,ATGGCATG,0.104
11,AGCTAAAA,0.168
12,GGTCGAAA,-0.168
13,GACCCTAC,-0.12
14,AAGGCTGT,-0.102
15,AGGGCCTC,-0.254
16,CGCGGTAA,0.287
17,GGTACTCA,-0.086
18,ATAGCGAT,-0.163
19,CCCTTCAC,-0.184
20,GGTTCGTA,0.076
21,CTGCCGTA,-0.00407
22,GCACCATA,-0.142
23,CTTTTGTC,0.0547
24,TATCACAA,0.0158
25,CGTGTCCA,-0.144

row,Sequence,PBM E-score
1,ATGTCGTA,-0.107
2,AGAACCTG,-0.146
3,GATTAAAC,0.219
4,TAACGATA,0.138
5,AGGGCGGA,-0.0938
6,ACCAAGTG,-0.2
7,AGGGACTC,-0.235
8,TGATCGAA,0.086
9,GTCGGCGA,0.134
10,CAGCTCAG,-0.321
11,AATGGTGT,0.00115
12,CCTGTCCC,-0.0502
13,ATATTTCC,0.177
14,TATGCCGA,0.28
15,ATGTAGTC,0.01
16,CACTACAG,0.149
17,GGTAACCA,-0.155
18,CGGAGTAC,0.0421
19,GCTTTGAA,0.0482
20,TGATCCCA,-0.0966
21,ATTGTGGA,-0.0507
22,CGTGGAAC,-0.0508
23,ACGTGAAC,-0.128
24,CAGATGCC,-0.144
25,CCATTCAG,0.0599

row,Sequence,PBM E-score
1,GACGGGGA,-0.153
2,CGCGGGCC,0.126
3,AGGTCCTA,-0.191
4,GCTTGGTA,-0.139
5,CATGGTAC,-0.223
6,GGATGGGA,-0.218
7,AAAAGCCA,0.235
8,CCCGCAGG,-0.136
9,TAGTACAA,0.0477
10,CCCGTGAG,0.00384
11,CTGATCAC,-0.176
12,AAGAACGA,0.138
13,CACTTCTA,-0.133
14,CATCGGGG,-0.161
15,AAAGGCTG,-0.153
16,TCGGTACA,0.143
17,CGCACTTA,0.114
18,ACGTCAGG,-0.268
19,GGCGCGAC,0.133
20,AGAAAGTA,0.131
21,CCGTGCAC,-0.0231
22,AAATGCCA,0.0215
23,ACGTCAAG,-0.124
24,AAGGCACA,0.112
25,GGTCATAA,0.17

row,Sequence,PBM E-score
1,CCTCCCCC,-0.445
2,GTGCTCAA,0.0765
3,CATCGAGG,-0.158
4,AGTGCCCC,-0.299
5,ACCCACTA,0.0867
6,TAGGGTAA,0.0891
7,CGCCATTC,0.0678
8,ATCATGAT,0.22
9,ACGTGAAA,0.0976
10,AGCGTACC,-0.151
11,CCCGAATC,0.104
12,TCGCCTCA,0.0662
13,GTATGCGA,0.13
14,AATCAATC,0.0212
15,CTCCGTTA,0.175
16,GATGTTAA,-0.0626
17,ACAGATAA,0.00025
18,ACGTGTAA,-0.00799
19,AAGCGCAG,0.0135
